Laboratory results taken from patent publication US5965701A (priority 1997, dated 1999).

Assay: solution-phase peptide synthesis; BOP or DIC/HOBt
Details: whole synthesis, RP-HPLC (two mobile phases) and capillary electrophoresis

H-[dF][dF][dNle][dR]-NHEt
final HPLC purity: >98%

[ ]: non-standard residue; d: D form. dNle = CCCC[C@@H](N)C(=O)O
